In PMC5128726, “Mechanism and Regulation of DNA-Protein Crosslink Repair by the DNA-Dependent Metalloprotease SPRTN”:
Construct, isoform or probe ends are uncertain for at least one entry.

Amino acid sequences for entries named in this document (tags omitted). A change or cut given only in a name is not applied to a line headed by its entry.
UniProt Q9H040: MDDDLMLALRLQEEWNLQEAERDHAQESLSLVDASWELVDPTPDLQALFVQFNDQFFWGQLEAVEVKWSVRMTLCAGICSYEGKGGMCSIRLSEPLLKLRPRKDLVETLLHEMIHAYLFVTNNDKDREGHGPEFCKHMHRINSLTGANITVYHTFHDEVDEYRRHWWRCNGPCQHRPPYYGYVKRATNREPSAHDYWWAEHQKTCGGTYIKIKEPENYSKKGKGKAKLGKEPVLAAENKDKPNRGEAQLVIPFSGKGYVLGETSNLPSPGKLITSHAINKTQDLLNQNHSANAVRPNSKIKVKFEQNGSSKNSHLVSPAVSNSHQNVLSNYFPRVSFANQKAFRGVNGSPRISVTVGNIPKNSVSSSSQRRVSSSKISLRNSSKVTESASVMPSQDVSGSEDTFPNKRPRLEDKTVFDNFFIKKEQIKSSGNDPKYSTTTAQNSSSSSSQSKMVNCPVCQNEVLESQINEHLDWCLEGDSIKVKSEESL

Target: SPRTN-auto (Homo sapiens) (UniProt Q9H040)
Assay: EMSA
Conditions: 250 nM DNA, 0.5-1 uM protein, shift slightly less than full length; Oligo EMSA: protein in 250 mM NaCl, 50 mM HEPES pH 7.5, 10% glycerol mixed 1:1 with DNA in 0.2 mg/ml BSA; 20 min on ice; 6% PAGE; recombinant protein; protein details: N-terminal GST; label: 5' Alexa488; single-stranded DNA

## ACGCTGCCGAATTCTACCAGTGCCTTGCTA [Alexa488 30-mer ss oligonucleotide]
  binding result: binds
